Values from PubChem BioAssay AID1053208 (Peter MacCallum Cancer Centre, 2014)
The deposit covers about 17,000 reagents; below is a part drawn at random. 788 of them (4.7%) count as active. 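Calls rest on z-score classes alone; an extra cut-off of viability at most 70% of control was not applied to them.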

Aim: 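Synthetic lethal interactions between gene loss and doxorubicin in osteosarcoma cells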 (primary screen)
Cell system: mouse osteosarcoma cells, early-passage culture from an engineered mouse model of fibroblastic bone tumour
Reagent: siRNA pool against mouse genes, 40 nM
Duration: about 120 h (48 h before drug, then 72 h with drug)
Conditions: doxorubicin 100 nM for 72 h, roughly 30-40% inhibitory dose
Detection: 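Luminescent ATP signal taken as viability with or without 100 nM doxorubicin for 72 h; mean of two wells set against non-targeting siRNA and turned into robust z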
Reading the numbers: viability z-score with doxorubicin and doxorubicin viability vs non-targeting: higher = more viable cells under doxorubicin; viability z-score without drug: higher = more viable cells with knock-down alone; z-score of drug to no-drug ratio: higher = less drug sensitisation by knock-down
Active means: 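a pool counts as active when its viability z-score with doxorubicin is -2 or below and its z-score without drug lies between -2 and 2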

Target gene,combined z-score class,viability z-score with doxorubicin,viability z-score without drug,z-score of drug to no-drug ratio,doxorubicin viability vs non-targeting,outcome
Drd5 (dopamine receptor D5),no change with or without drug,-1.12,-1.85,0.22,0.84,inactive
Arl5a (ADP-ribosylation factor-like 5A),no change with or without drug,-1.69,-0.51,-1.35,0.79,inactive
Ralgps1 (Ral GEF with PH domain and SH3 binding motif 1),no change with or without drug,-1.8,0.17,-1.91,0.78,inactive
Csn1s1 (casein alpha s1),no change with or without drug,-0.45,-0.51,0,0.9,inactive
Ctif (CBP80/20-dependent translation initiation factor),no change with or without drug,0.34,-0.84,1.12,0.97,inactive
"Parvg (parvin, gamma)",no change with or without drug,-0.9,-1.18,0,0.86,inactive
Trarg1 (trafficking regulator of GLUT4 (SLC2A4) 1),no change with or without drug,0.45,1.01,-0.11,0.98,inactive
Rpl36a (ribosomal protein L36A),low cell count with and without drug,-5.51,-5.06,-3.26,0.45,inactive
Dnajb2 (DnaJ heat shock protein family (Hsp40) member B2),no change with or without drug,0.67,0,0.79,1,inactive
Ttc39b (tetratricopeptide repeat domain 39B),high cell count with doxorubicin only,2.36,0.84,1.91,1.15,inactive
Dctpp1 (dCTP pyrophosphatase 1),low cell count without drug only,0.56,-4.72,5.62,0.99,inactive
Slc22a13b,no change with or without drug,-0.22,0.67,-0.56,0.92,inactive
Tg (thyroglobulin),no change with or without drug,-0.9,-1.18,0,0.86,inactive
Elovl4 (ELOVL fatty acid elongase 4),no change with or without drug,0,0.17,0,0.94,inactive
Opn1sw,no change with or without drug,0.67,-1.52,2.02,1,inactive
Sgcz (sarcoglycan zeta),low cell count without drug only,0.22,-2.19,2.14,0.96,inactive
Mzt2 (mitotic spindle organizing protein 2),no change with or without drug,0.11,0.17,0.11,0.95,inactive
Unk (unkempt family zinc finger),high cell count without drug only,1.24,2.53,-0.34,1.05,inactive
Srpx (sushi-repeat-containing protein),no change with or without drug,-0.67,1.18,-1.35,0.88,inactive
Smad6 (SMAD family member 6),no change with or without drug,0.22,0.17,0.22,0.96,inactive
Gucy2f (guanylate cyclase 2f),no change with or without drug,1.46,1.52,0.56,1.07,inactive
E130006D01Rik (RIKEN cDNA E130006D01 gene),no change with or without drug,1.35,1.52,0.45,1.06,inactive
Ctnna1 (catenin alpha 1),no change with or without drug,-0.9,1.18,-1.57,0.86,inactive
Kctd7 (potassium channel tetramerisation domain containing 7),low cell count with doxorubicin only,-2.02,-0.84,-1.57,0.76,active
Zbtb39 (zinc finger and BTB domain containing 39),no change with or without drug,-0.11,1.18,-0.79,0.93,inactive
Krtap19-1 (keratin associated protein 19-1),low cell count with doxorubicin only,-2.92,-0.84,-2.47,0.68,active
Or52x1 (olfactory receptor family 52 subfamily X member 1),no change with or without drug,-0.11,0.34,-0.22,0.93,inactive
Ccny (cyclin Y),no change with or without drug,0,-0.51,0.45,0.94,inactive
Mtres1 (mitochondrial transcription rescue factor 1),high cell count with doxorubicin only,2.7,1.52,1.69,1.18,inactive
Plxna2 (plexin A2),no change with or without drug,0.45,-0.17,0.67,0.98,inactive
Zfp629 (zinc finger protein 629),no change with or without drug,-0.67,-1.85,0.79,0.88,inactive

The list goes on; the last 4 above are carried over.
Target gene,combined z-score class,viability z-score with doxorubicin,viability z-score without drug,z-score of drug to no-drug ratio,doxorubicin viability vs non-targeting,outcome
Ccny (cyclin Y),no change with or without drug,0,-0.51,0.45,0.94,inactive
Mtres1 (mitochondrial transcription rescue factor 1),high cell count with doxorubicin only,2.7,1.52,1.69,1.18,inactive
Plxna2 (plexin A2),no change with or without drug,0.45,-0.17,0.67,0.98,inactive
Zfp629 (zinc finger protein 629),no change with or without drug,-0.67,-1.85,0.79,0.88,inactive
"Cop1 (COP1, E3 ubiquitin ligase)",no change with or without drug,-0.9,-0.67,-0.34,0.86,inactive
Slc26a5,no change with or without drug,1.01,-0.51,1.57,1.03,inactive
Vmp1 (vacuole membrane protein 1),low cell count without drug only,0.22,-2.87,2.81,0.96,inactive
Rnf114 (ring finger protein 114),no change with or without drug,-1.69,1.69,-2.59,0.79,inactive
Hipk2 (homeodomain interacting protein kinase 2),no change with or without drug,1.24,0.17,1.24,1.05,inactive
9030612E09Rik (RIKEN cDNA 9030612E09 gene),no change with or without drug,-1.35,-0.34,-1.12,0.82,inactive
"Col4a2 (collagen, type IV, alpha 2)",no change with or without drug,0.22,-1.18,1.24,0.96,inactive
Or7e170 (olfactory receptor family 7 subfamily E member 170),no change with or without drug,0,0.17,0,0.94,inactive
Ptdss2 (phosphatidylserine synthase 2),no change with or without drug,-1.57,1.52,-2.36,0.8,inactive
Top1 (topoisomerase (DNA) I),no change with or without drug,-1.57,0.17,-1.69,0.8,inactive
"Epm2a (epilepsy, progressive myoclonic epilepsy, type 2 gene alpha)",no change with or without drug,-1.35,-0.51,-1.01,0.82,inactive
"Atp6v1g1 (ATPase, H+ transporting, lysosomal V1 subunit G1)",no change with or without drug,1.24,1.52,0.34,1.05,inactive
Or5g27 (olfactory receptor family 5 subfamily G member 27),no change with or without drug,-0.34,0.51,-0.56,0.91,inactive
Mip (major intrinsic protein of lens fiber),no change with or without drug,-0.56,1.18,-1.24,0.89,inactive
Hspb1 (heat shock protein family B (small) member 1),no change with or without drug,0.11,-0.17,0.34,0.95,inactive
"Zer1 (zyg-11 related, cell cycle regulator)",no change with or without drug,-1.35,-1.52,-0.34,0.82,inactive
"Pou2f3 (POU domain, class 2, transcription factor 3)",no change with or without drug,1.24,0.67,0.9,1.05,inactive
Map7d1 (MAP7 domain containing 1),no change with or without drug,0.22,0,0.34,0.96,inactive
Gtpbp3 (GTP binding protein 3),no change with or without drug,-0.9,-0.67,-0.34,0.86,inactive
